Laboratory results reported in article PMC11341912.
These are yes or no findings as the source states them, for the method shown. In cells and extracts the contact can be indirect. Some entries that bind do so weakly or less than the wild type. For some assays here: Tags and fused reporters may be left off the sequences shown.

The chains behind the UniProt entries cited, without tags or fusion partners.
UniProt P09874: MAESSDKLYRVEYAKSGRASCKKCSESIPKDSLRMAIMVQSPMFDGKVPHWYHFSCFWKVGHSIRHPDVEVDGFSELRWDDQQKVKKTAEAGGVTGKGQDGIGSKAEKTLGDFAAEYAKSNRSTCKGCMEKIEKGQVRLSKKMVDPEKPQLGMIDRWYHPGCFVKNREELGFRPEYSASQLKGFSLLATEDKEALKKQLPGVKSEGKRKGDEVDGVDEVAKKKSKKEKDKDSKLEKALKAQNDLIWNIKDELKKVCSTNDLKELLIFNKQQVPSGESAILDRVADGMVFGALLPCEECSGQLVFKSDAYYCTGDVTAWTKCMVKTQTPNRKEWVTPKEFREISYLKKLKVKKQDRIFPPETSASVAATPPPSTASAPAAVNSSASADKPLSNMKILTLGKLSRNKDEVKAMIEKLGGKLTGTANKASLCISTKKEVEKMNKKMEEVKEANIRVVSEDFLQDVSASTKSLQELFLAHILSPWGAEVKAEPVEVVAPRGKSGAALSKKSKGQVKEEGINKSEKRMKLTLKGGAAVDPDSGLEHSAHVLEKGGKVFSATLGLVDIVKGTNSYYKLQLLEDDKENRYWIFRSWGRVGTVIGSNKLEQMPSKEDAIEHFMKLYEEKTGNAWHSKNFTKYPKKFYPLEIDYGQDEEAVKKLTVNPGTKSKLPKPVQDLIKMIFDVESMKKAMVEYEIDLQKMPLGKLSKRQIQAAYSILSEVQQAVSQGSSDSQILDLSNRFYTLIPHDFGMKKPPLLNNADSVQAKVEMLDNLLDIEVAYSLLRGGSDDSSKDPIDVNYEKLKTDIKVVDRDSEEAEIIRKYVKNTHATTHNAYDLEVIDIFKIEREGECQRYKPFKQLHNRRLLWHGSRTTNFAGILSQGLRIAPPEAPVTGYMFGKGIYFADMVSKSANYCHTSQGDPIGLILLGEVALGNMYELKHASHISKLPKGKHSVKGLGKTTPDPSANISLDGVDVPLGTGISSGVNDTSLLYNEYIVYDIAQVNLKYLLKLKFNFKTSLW
UniProt P17028: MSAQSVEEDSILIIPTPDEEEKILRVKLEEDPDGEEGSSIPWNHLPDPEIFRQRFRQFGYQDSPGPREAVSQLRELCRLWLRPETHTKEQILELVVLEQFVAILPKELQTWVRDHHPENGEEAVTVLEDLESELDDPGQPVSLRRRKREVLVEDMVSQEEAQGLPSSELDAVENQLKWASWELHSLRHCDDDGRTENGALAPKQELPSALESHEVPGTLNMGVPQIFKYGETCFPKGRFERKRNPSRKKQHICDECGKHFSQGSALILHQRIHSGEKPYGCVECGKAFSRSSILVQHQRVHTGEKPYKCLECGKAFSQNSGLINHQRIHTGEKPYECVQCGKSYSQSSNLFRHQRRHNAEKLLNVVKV

Tests used:
Myc-tagged PARP1 [1] = biological target: Myc-tagged PARP1 (UniProt P09874); assay: co-IP; reciprocal: PARP1-Myc and PINX1/UTP14A/ZNF24-FLAG co-transfected into HEK293T; IP of whole cell lysates with anti-Myc agarose beads
UTP14A-FLAG = biological target: T1, UTP14A-FLAG (UniProt Q9BVJ6); assay: co-IP; PARP1-Myc and PINX1/UTP14A/ZNF24-FLAG co-transfected into HEK293T; IP of whole cell lysates with anti-FLAG agarose beads; Triton X-100 lysis buffer with 1 μM Olaparib and 1 μM PARGi, 4 °C; for PINX1 also after DMSO or 1 µM Olaparib for 40 min, then 50 µM MNNG for 15 min or 2 mM H2O2 for 5 min
T1 sequence: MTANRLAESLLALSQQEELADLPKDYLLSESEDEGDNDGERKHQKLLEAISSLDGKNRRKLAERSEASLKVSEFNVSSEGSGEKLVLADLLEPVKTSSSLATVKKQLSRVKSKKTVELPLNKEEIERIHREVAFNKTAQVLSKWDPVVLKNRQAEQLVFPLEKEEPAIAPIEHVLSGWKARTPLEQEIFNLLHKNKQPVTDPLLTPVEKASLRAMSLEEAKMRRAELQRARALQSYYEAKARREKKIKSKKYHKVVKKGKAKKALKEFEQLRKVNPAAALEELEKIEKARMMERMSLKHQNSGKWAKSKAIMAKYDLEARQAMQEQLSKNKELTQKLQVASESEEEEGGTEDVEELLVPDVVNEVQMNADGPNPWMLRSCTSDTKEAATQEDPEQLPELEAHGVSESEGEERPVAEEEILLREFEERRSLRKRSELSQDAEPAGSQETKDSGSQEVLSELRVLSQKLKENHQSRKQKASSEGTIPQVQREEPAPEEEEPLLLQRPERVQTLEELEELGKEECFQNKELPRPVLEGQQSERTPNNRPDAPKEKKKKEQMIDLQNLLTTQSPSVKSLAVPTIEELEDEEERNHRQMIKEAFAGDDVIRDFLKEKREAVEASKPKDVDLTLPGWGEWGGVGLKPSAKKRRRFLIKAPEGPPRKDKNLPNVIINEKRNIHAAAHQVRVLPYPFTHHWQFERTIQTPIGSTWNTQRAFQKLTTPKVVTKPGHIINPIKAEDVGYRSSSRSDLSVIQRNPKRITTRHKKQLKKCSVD

ZNF24-FLAG = ZNF24-FLAG (UniProt P17028); assay: as above
[2] = biological target: T2, PINX1-FLAG (PIN2/TRF1-interacting telomerase inhibitor 1) (UniProt Q96BK5); assay: as above
T2 sequence: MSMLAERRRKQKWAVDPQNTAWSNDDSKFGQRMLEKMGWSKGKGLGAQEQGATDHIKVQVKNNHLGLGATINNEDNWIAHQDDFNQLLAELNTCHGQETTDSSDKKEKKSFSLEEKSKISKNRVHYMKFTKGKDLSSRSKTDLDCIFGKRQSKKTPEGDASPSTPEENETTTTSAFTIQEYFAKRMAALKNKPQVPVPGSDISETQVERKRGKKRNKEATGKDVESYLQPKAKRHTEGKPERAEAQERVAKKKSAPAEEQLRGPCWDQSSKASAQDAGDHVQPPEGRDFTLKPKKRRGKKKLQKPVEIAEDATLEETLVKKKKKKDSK

[3] = biological target: endogenous PARP1 (human (endogenous in the cells used, line not stated; all cell lines of the paper are human)) (UniProt P09874); assay: co-IP; endogenous proteins; IP with corresponding antibodies and protein A/G beads (Supplementary Fig. 3A); which protein was precipitated is not given
Myc-tagged PARP1 [4] = biological target: Myc-tagged PARP1 (UniProt P09874); assay: co-IP; truncated versions of PINX1 with PARP1 (Supplementary Fig. 3D); cells, tags and beads not given

ZNF24-FLAG (from UniProt P17028 1-368) was tested, and the binding (Myc-tagged PARP1 [1]) was “binds”.

For “Myc-tagged PARP1 (from UniProt P09874 1-1014)”, the binding (UTP14A-FLAG) was “binds”, the binding (ZNF24-FLAG) was “binds” and the binding [2] was “binds”.

B1: UTP14A-FLAG (protein, UniProt Q9BVJ6 1-771)
chain: MTANRLAESLLALSQQEELADLPKDYLLSESEDEGDNDGERKHQKLLEAISSLDGKNRRKLAERSEASLKVSEFNVSSEGSGEKLVLADLLEPVKTSSSLATVKKQLSRVKSKKTVELPLNKEEIERIHREVAFNKTAQVLSKWDPVVLKNRQAEQLVFPLEKEEPAIAPIEHVLSGWKARTPLEQEIFNLLHKNKQPVTDPLLTPVEKASLRAMSLEEAKMRRAELQRARALQSYYEAKARREKKIKSKKYHKVVKKGKAKKALKEFEQLRKVNPAAALEELEKIEKARMMERMSLKHQNSGKWAKSKAIMAKYDLEARQAMQEQLSKNKELTQKLQVASESEEEEGGTEDVEELLVPDVVNEVQMNADGPNPWMLRSCTSDTKEAATQEDPEQLPELEAHGVSESEGEERPVAEEEILLREFEERRSLRKRSELSQDAEPAGSQETKDSGSQEVLSELRVLSQKLKENHQSRKQKASSEGTIPQVQREEPAPEEEEPLLLQRPERVQTLEELEELGKEECFQNKELPRPVLEGQQSERTPNNRPDAPKEKKKKEQMIDLQNLLTTQSPSVKSLAVPTIEELEDEEERNHRQMIKEAFAGDDVIRDFLKEKREAVEASKPKDVDLTLPGWGEWGGVGLKPSAKKRRRFLIKAPEGPPRKDKNLPNVIINEKRNIHAAAHQVRVLPYPFTHHWQFERTIQTPIGSTWNTQRAFQKLTTPKVVTKPGHIINPIKAEDVGYRSSSRSDLSVIQRNPKRITTRHKKQLKKCSVD
For B1, the binding (Myc-tagged PARP1 [1]) was “binds”.

B2: endogenous PINX1 (protein, UniProt Q96BK5 1-328)
chain: MSMLAERRRKQKWAVDPQNTAWSNDDSKFGQRMLEKMGWSKGKGLGAQEQGATDHIKVQVKNNHLGLGATINNEDNWIAHQDDFNQLLAELNTCHGQETTDSSDKKEKKSFSLEEKSKISKNRVHYMKFTKGKDLSSRSKTDLDCIFGKRQSKKTPEGDASPSTPEENETTTTSAFTIQEYFAKRMAALKNKPQVPVPGSDISETQVERKRGKKRNKEATGKDVESYLQPKAKRHTEGKPERAEAQERVAKKKSAPAEEQLRGPCWDQSSKASAQDAGDHVQPPEGRDFTLKPKKRRGKKKLQKPVEIAEDATLEETLVKKKKKKDSK
With B2 the binding [3] was “binds”.

B3: C-terminal TID domain-truncated PINX1 (PINX1[1–253aa]) (domain or fragment, UniProt Q96BK5 1-253)
chain: MSMLAERRRKQKWAVDPQNTAWSNDDSKFGQRMLEKMGWSKGKGLGAQEQGATDHIKVQVKNNHLGLGATINNEDNWIAHQDDFNQLLAELNTCHGQETTDSSDKKEKKSFSLEEKSKISKNRVHYMKFTKGKDLSSRSKTDLDCIFGKRQSKKTPEGDASPSTPEENETTTTSAFTIQEYFAKRMAALKNKPQVPVPGSDISETQVERKRGKKRNKEATGKDVESYLQPKAKRHTEGKPERAEAQERVAKKK
With B3 the binding (Myc-tagged PARP1 [4]) was “binds”.

B4: PINX1-FLAG (PIN2/TRF1-interacting telomerase inhibitor 1) (protein, UniProt Q96BK5 1-328)
chain: MSMLAERRRKQKWAVDPQNTAWSNDDSKFGQRMLEKMGWSKGKGLGAQEQGATDHIKVQVKNNHLGLGATINNEDNWIAHQDDFNQLLAELNTCHGQETTDSSDKKEKKSFSLEEKSKISKNRVHYMKFTKGKDLSSRSKTDLDCIFGKRQSKKTPEGDASPSTPEENETTTTSAFTIQEYFAKRMAALKNKPQVPVPGSDISETQVERKRGKKRNKEATGKDVESYLQPKAKRHTEGKPERAEAQERVAKKKSAPAEEQLRGPCWDQSSKASAQDAGDHVQPPEGRDFTLKPKKRRGKKKLQKPVEIAEDATLEETLVKKKKKKDSK
For B4, the binding (Myc-tagged PARP1 [1]) was “binds”.
